PubChem BioAssay AID504774, Drosophila RNAi Screening Center, 2011
Screen: 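Fly genes whose loss alters survival after alkylation damage to DNA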 (primary screen). Cells: Drosophila Kc167 cells. Reagent: long dsRNA against Drosophila genes, about 0.25 µg dsRNA per well. Timing: about 6 days: 3 days knock-down, then 3 days with or without MMS. Challenge: methyl methanesulphonate 0.004% (w/v) for 3 days after knock-down. Detection: 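Viability in wells given MMS, read as ATP luminescence, normalised by quantiles plate by plate and averaged across replicates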. Reading the numbers: mean viability with MMS and viability with MMS: higher = more surviving cells after MMS.
In all, the deposit lists about 23,000 reagents; shown is a random part of those that have a named target and a result. 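Values are quantile-normalised luminescence on an arbitrary scale; higher means more cells surviving MMS.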 Reagents against one gene are numbered here. Further read-outs or replicates are left out here.

{"target": "CG10274", "reagent no.": 1, "mean viability with MMS": 3.54e6, "viability with MMS, replicate 1": 4.02e6}
{"target": "Ugt303B1", "reagent no.": 1, "mean viability with MMS": 3.41e6, "viability with MMS, replicate 1": 3.79e6}
{"target": "RhoGAP71E", "reagent no.": 1, "mean viability with MMS": 3.44e6, "viability with MMS, replicate 1": 3.82e6}
{"target": "RhoGAP71E", "reagent no.": 2, "mean viability with MMS": 3.20e6, "viability with MMS, replicate 1": 3.65e6}
{"target": "RhoGAP71E", "reagent no.": 3, "mean viability with MMS": 3.59e6, "viability with MMS, replicate 1": 4.01e6}
{"target": "Mkrn1", "reagent no.": 1, "mean viability with MMS": 3.67e6, "viability with MMS, replicate 1": 3.99e6}

Records listed so far whose gene name begins with R or r (3):
{"target": "RhoGAP71E", "reagent no.": 1, "mean viability with MMS": 3.44e6, "viability with MMS, replicate 1": 3.82e6}
{"target": "RhoGAP71E", "reagent no.": 2, "mean viability with MMS": 3.20e6, "viability with MMS, replicate 1": 3.65e6}
{"target": "RhoGAP71E", "reagent no.": 3, "mean viability with MMS": 3.59e6, "viability with MMS, replicate 1": 4.01e6}

The listing continues.
{"target": "CG6628", "reagent no.": 1, "mean viability with MMS": 3.55e6, "viability with MMS, replicate 1": 3.98e6}
{"target": "ymp", "reagent no.": 1, "mean viability with MMS": 3.50e6, "viability with MMS, replicate 1": 3.96e6}
{"target": "ymp", "reagent no.": 2, "mean viability with MMS": 3.63e6, "viability with MMS, replicate 1": 4.10e6}
{"target": "grim", "reagent no.": 1, "mean viability with MMS": 3.15e6, "viability with MMS, replicate 1": 3.58e6}
{"target": "grim", "reagent no.": 2, "mean viability with MMS": 3.31e6, "viability with MMS, replicate 1": 3.53e6}
{"target": "Taf11", "reagent no.": 1, "mean viability with MMS": 3.50e6, "viability with MMS, replicate 1": 4.03e6}
{"target": "COX4L", "reagent no.": 1, "mean viability with MMS": 3.60e6, "viability with MMS, replicate 1": 4.02e6}
{"target": "CG4213", "reagent no.": 1, "mean viability with MMS": 3.47e6, "viability with MMS, replicate 1": 3.92e6}
